{"source": "PubChem BioAssay AID540276", "about": "(National Center for Advancing Translational Sciences (NCATS), 2011)", "note": "The campaign covered roughly 300,000 compounds. About 5,400 (1.8%) were called active. Inconclusive results, whose numbers are uncertain, are shown with a selection of clear calls. Calls follow the shape of the full dose curve; tested in HEK293 cells. Potencies of inconclusive entries are doubtful fits and often do not repeat. % is scaled to controls: 0 for no effect and ±100 for the full control effect; potency is read from the fitted curve at half-maximal effect."}
{"assay": "qHTS for inhibitors of binding or entry into cells for Marburg Virus", "details": "Marburg virus pseudotyped entry inhibition, cell reporter; activity change, negative = inhibition: at 37.8 µM (top of the series) unless noted"}
{"smiles": "C=C(Br)CO[C@@H]1C=C[C@@H](c2ccccc2)O[C@@H]1COC", "activity change, negative = inhibition": "inactive: 8.93% [at 14.2 µM]"}
{"smiles": "O=C(CCN1C(=O)c2ccccc2S1(=O)=O)NCc1ccco1", "activity change, negative = inhibition": "inactive: 4.09%"}
{"smiles": "Cc1ccccc1-c1nc(-c2ccc(NC(=O)c3ccc4c(c3)OCO4)cc2)no1", "Potency": "inconclusive: 32.6 µM [inhibitor, single point]"}
{"smiles": "C=CCn1c(O)c(C(CC)=Nc2ccc(N(CC)CC)cc2)c(=O)[nH]c1=O", "activity change, negative = inhibition": "inactive: -1.34%"}
{"smiles": "CC(C)(Oc1ccc(-c2ccco2)cc1)C(=O)O", "activity change, negative = inhibition": "inactive: -4.66%"}
{"smiles": "COc1ccc(NC(=O)c2c(NC(=O)CNCC(C)C)sc3c2CCC3)c(OC)c1", "Potency": "inconclusive: 2.82 µM [inhibitor, full curve, poor fit]"}
{"smiles": "CCCc1nc2ccccc2c(=O)n1/N=C/c1ccc(O)cc1", "Potency": "inconclusive: 35.5 µM [inhibitor, single point]"}
{"smiles": "CCOc1ccccc1N(C(C)=O)S(=O)(=O)c1ccc(Cl)cc1", "activity change, negative = inhibition": "inactive: 3.07% [at 46.1 µM]"}
{"smiles": "CC1CCCN(C(=O)c2cc3c(Cl)nc4ccccc4c3s2)C1", "note": "(stereo not drawn)", "activity change, negative = inhibition": "inactive: 23.1% [at 46.1 µM]"}
{"smiles": "Cc1ccc(OCc2nc3ccccc3n2CCOc2ccc(Cl)cc2)cc1", "Potency": "inconclusive: 35.5 µM [inhibitor, single point]"}
{"smiles": "COc1cccc(NC(=O)CN(C)C(=O)/C=C/c2cn(-c3ccccc3)nc2-c2cccs2)c1", "Potency": "inconclusive: 35.5 µM [inhibitor, single point]"}
{"smiles": "CS(=O)(=O)Nc1ccc(C2=NN(C(=O)c3ccco3)C(c3ccccc3)C2)cc1", "note": "(stereo not drawn)", "Potency": "inconclusive: 0.058 µM [inhibitor, full curve, poor fit]"}
{"smiles": "O=C(NC1CCS(=O)(=O)C1)c1ccc(-c2ccc(Br)cc2)o1", "note": "(stereo not drawn)", "activity change, negative = inhibition": "inactive: 7.12%"}
{"smiles": "O=C(CCc1nnc(CCCCc2ccccc2)o1)N(CCO)Cc1ccccc1", "Potency": "inconclusive: 25.1 µM [inhibitor, single point]"}
{"smiles": "NC(=O)N=Nc1c(O)n(Cc2ccccc2)c2ccc(Br)cc12", "Potency": "inconclusive: 12.6 µM [inhibitor, partial curve, poor fit]"}
{"smiles": "CCC(Cn1nnc2ccccc2c1=O)NC(=O)Nc1ccc(C)c(C)c1", "note": "(stereo not drawn)", "activity change, negative = inhibition": "inactive: 2.29% [at 46.1 µM]"}
{"smiles": "CCn1c(C)nc2c(=O)oc3ccccc3c21", "Potency": "inconclusive: 29.1 µM [activator, single point]"}
{"smiles": "COc1ccccc1Cn1c(=S)[nH]c2cc(C(=O)NCCN3CCOCC3)ccc2c1=O", "activity change, negative = inhibition": "inactive: 5.94%"}
{"smiles": "CCOc1cc2c(cc1O)C(=NOC)CC1C2CCC2(C)C(O)CCC12", "note": "(stereo not drawn)", "Potency": "inconclusive: 0.355 µM [inhibitor, full curve, poor fit]"}
{"smiles": "Cc1cncn1CCc1nc2c3ccccc3nc(SCC(=O)Nc3cccc(Cl)c3)n2n1", "Potency": "active: 6.51 µM"}
{"smiles": "Cc1ccc(NC(=O)CN2C(=O)NC(Cc3c[nH]c4ccccc34)C2=O)cc1S(=O)(=O)N1CCCCC1", "note": "(stereo not drawn)", "Potency": "inconclusive: 35.5 µM [inhibitor, single point]"}
{"smiles": "CC(=O)SC(C)CC(=O)Nc1ccccc1", "note": "(stereo not drawn)", "activity change, negative = inhibition": "inactive: -9.12%"}
{"smiles": "Cc1ccc(C)c(N2CCN(C(=O)c3csc(C)c3C)CC2)c1", "Potency": "inconclusive: 35.5 µM [inhibitor, single point]"}
{"smiles": "COc1ccc(C2=Nn3c(nnc3-c3ccccc3OC)SC2)cc1OC", "Potency": "inconclusive: 44.7 µM [inhibitor, partial curve, poor fit]"}
{"smiles": "CCOc1ccc(C(=O)Nc2cccc(C(=O)O)c2)cc1Cl", "Potency": "inconclusive: 1.78 µM [inhibitor, full curve, poor fit]"}
{"smiles": "COc1ccc2c(c1)C(c1ccc(N3CCOCC3)cc1)=NNC(c1cccnc1)=N2", "activity change, negative = inhibition": "inactive: -11.2%"}
{"smiles": "COC(/C(C)=C/C=C/C(C)=C/c1coc(C)n1)C(C)C1CC(O)C2(C)OC2C=CC(C)C2CC(CC(=O)O2)CC2OC2C(=O)O1", "note": "(stereo not drawn)", "activity change, negative = inhibition": "inactive: 5.62%"}
{"smiles": "CCOC(=O)C1(CCc2ccccc2)CCN(C(=O)c2ccoc2)CC1", "Potency": "inconclusive: 2.82 µM [activator, full curve]"}
{"smiles": "COC(=O)C(C)Sc1ncnc2c1c(-c1ccccc1)cn2-c1ccc(F)cc1", "note": "(stereo not drawn)", "Potency": "inconclusive: 11.2 µM [activator, partial curve, poor fit]"}
{"smiles": "CCN(CC)S(=O)(=O)c1ccc(/C=C/C(=O)OCC(=O)NCc2ccco2)cc1", "activity change, negative = inhibition": "inactive: 4.17%"}
{"smiles": "COc1cccc(NC(=O)Cn2c(CCC(=O)O)ccc2-c2ccc(Cl)cc2)c1", "activity change, negative = inhibition": "inactive: -41.4% [at 46.1 µM]"}
{"smiles": "COc1ccc(COC(=O)C2=C(C)NC(=O)NC2c2ccc(O)c(OC)c2)cc1", "note": "(stereo not drawn)", "activity change, negative = inhibition": "inactive: -8.19%"}
{"smiles": "Cc1c(C(=O)NCc2c(F)cc(F)cc2F)oc2ccc(S(=O)(=O)N3CCOCC3)cc12", "Potency": "inconclusive: 3.98 µM [inhibitor, partial curve, poor fit]"}
{"smiles": "Brc1ccc(-c2cn3nc4c(nc3n2)CCCC4)cc1", "Potency": "active: 5.01 µM"}
{"smiles": "O=C(O)c1cncc(C#CCC2CCCCC2)c1", "Potency": "inconclusive: 25.1 µM [activator, single point]"}
{"smiles": "COc1ccc(-c2cn(-c3ccc(C)cc3C)c(=S)[nH]2)cc1OC", "Potency": "inconclusive: 12.6 µM [inhibitor, single point]"}
{"smiles": "COc1ccccc1C(=O)N(Cc1ccco1)C1CCS(=O)(=O)C1", "note": "(stereo not drawn)", "activity change, negative = inhibition": "inactive: 4.03%"}
{"smiles": "O=C(O)c1ccc(N=Cc2c(O)ccc3ccccc23)cc1", "Potency": "inconclusive: 11.2 µM [inhibitor, partial curve, poor fit]"}
{"smiles": "Cc1cccc(N2CCN(C(=O)CCc3c(C)nc4ncnn4c3C)CC2)c1C", "activity change, negative = inhibition": "inactive: 0.668% [at 46.1 µM]"}
{"smiles": "CC1(C)CC(=O)C=C(Nc2ccccc2N)C1", "activity change, negative = inhibition": "inactive: -4.86%"}
{"smiles": "CCOC(=O)c1cc(NC(=O)c2cnccn2)cc(C(=O)OCC)c1", "Potency": "inconclusive: 32.6 µM [activator, partial curve, poor fit]"}
{"smiles": "COCCN1C(=O)c2[nH]nc(-c3cc(C)ccc3O)c2C1c1ccc(C(C)C)cc1", "note": "(stereo not drawn)", "Potency": "inconclusive: 7.94 µM [inhibitor, partial curve, poor fit]"}
{"smiles": "CCOc1ccc(CN2CCC(C(=O)N3CCN(c4ccccc4F)CC3)CC2)cc1OC", "Potency": "inconclusive: 29.1 µM [inhibitor, single point]"}
{"smiles": "Cn1c(=O)c(S(=O)(=O)C(C)(C)C)c(O)c2ccccc21", "Potency": "inconclusive: 35.5 µM [activator, single point]"}
{"smiles": "O=C(NCc1ccc(F)cc1)c1ccccc1OCc1ccccc1", "Potency": "inconclusive: 0.126 µM [inhibitor, full curve, poor fit]"}
{"smiles": "C/C(CC(=O)Nc1cc(Cl)ccc1Cl)=N\\NC(N)=S", "Potency": "inconclusive: 5.8 µM [inhibitor, partial curve, poor fit]"}
{"smiles": "Cn1c(=O)nc2n(Cc3ccccc3)c3ccccc3cc-2c1=O", "Potency": "inconclusive: 23.1 µM [inhibitor, partial curve, poor fit]"}
{"smiles": "O=C(O)C1CCCN1S(=O)(=O)c1ccccc1", "note": "(stereo not drawn)", "Potency": "inconclusive: 23.1 µM [activator, single point]"}
{"smiles": "Cc1cccc(-n2c(C)cc(C(=O)NC3CCCCC3)c2C)c1", "Potency": "inconclusive: 11.2 µM [inhibitor, single point]"}
{"smiles": "O=c1[nH]c(-c2ccncc2)nc2ccccc12", "activity change, negative = inhibition": "inactive: 10.5% [at 46.1 µM]"}
{"smiles": "Cc1cc(NC(=O)c2coc(=O)c(Br)c2)ccc1C(C)C", "Potency": "inconclusive: 3.98 µM [activator, partial curve, poor fit]"}
{"smiles": "Cc1nn2c(c1-c1ccc(Cl)cc1)N=C(c1ccco1)CC2c1ccccc1", "note": "(stereo not drawn)", "Potency": "inconclusive: 29.1 µM [inhibitor, single point]"}
{"smiles": "CCOC(=O)c1ccccc1OCc1cc(/C=N/n2cnnc2)ccc1OC", "Potency": "active: 0.103 µM"}
{"smiles": "Cc1cccc(C)c1OCCCN1CCOCC1", "Potency": "inconclusive: 1 µM [activator, single point]"}
{"smiles": "CCN(CC)S(=O)(=O)c1ccc(OC)c(NC(=O)c2ccc3c(c2)OCO3)c1", "activity change, negative = inhibition": "inactive: -18.9% [at 46.1 µM]"}
{"smiles": "COc1ccc(-c2[nH]ncc2CN2CCN(C(=O)c3ccco3)CC2)cc1F", "Potency": "inconclusive: 22.4 µM [inhibitor, single point]"}
{"smiles": "CSc1ccccc1NC(=O)COC(=O)c1ccc(-n2nc(C)cc2C)cc1", "activity change, negative = inhibition": "inactive: 22.1%"}
{"smiles": "Cc1ccc2c(CC(=O)Nc3ccc(N4CCN(C)CC4)cc3C)coc2c1", "Potency": "inconclusive: 29.1 µM [inhibitor, single point]"}
{"smiles": "O=C(CN1C(=O)NC(c2ccccc2)(c2ccccc2)C1=O)NCc1ccco1", "Potency": "inconclusive: 35.5 µM [inhibitor, single point]"}
{"smiles": "O=C1NC(c2cccc(Br)c2)=N/C1=C\\c1ccco1", "activity change, negative = inhibition": "inactive: -19.9%"}
{"smiles": "CCOC(=O)C(Cc1ccccc1)C(=O)Nc1cccc2ccccc12", "note": "(stereo not drawn)", "Potency": "inconclusive: 3.55 µM [activator, single point]"}
{"smiles": "CCOC(=O)C1=C(C)NC(=NC)SC1c1ccccc1", "note": "(stereo not drawn)", "activity change, negative = inhibition": "inactive: 0.768% [at 46.1 µM]"}
{"smiles": "COCCNC(=S)Nc1cc(OC)c(NC(=O)c2ccco2)cc1OC", "activity change, negative = inhibition": "inactive: 0.419%"}
{"smiles": "CC(=O)Nc1ccc(NC(=O)CSc2nccn2C)cc1", "Potency": "inconclusive: 6.31 µM [activator, partial curve, poor fit]"}
{"smiles": "CC(C)(C)OC(=O)NCCCCCc1nnc(SCC(N)=O)o1", "activity change, negative = inhibition": "inactive: 27.3%"}
{"smiles": "O=C(NN1C(=O)c2ccccc2NC1c1ccccn1)c1ccccc1", "note": "(stereo not drawn)", "Potency": "inconclusive: 29.1 µM [activator, single point]"}
{"smiles": "CCCOc1cccc(C(=O)N(Cc2ccc(C)o2)C2CCS(=O)(=O)C2)c1", "note": "(stereo not drawn)", "activity change, negative = inhibition": "inactive: -18.6% [at 46.1 µM]"}
{"smiles": "Cc1cc(Br)ccc1NC(=S)Nc1cccc([N+](=O)[O-])c1", "activity change, negative = inhibition": "inactive: 25.5%"}
{"smiles": "Cc1ccc(OCC(=O)NC2CC(C)(C)NC(C)(C)C2)cc1C", "Potency": "inconclusive: 35.5 µM [inhibitor, partial curve, poor fit]"}
{"smiles": "CCCc1nc2ccccc2c(=O)n1-c1ccc(O)cc1", "activity change, negative = inhibition": "inactive: -21.8% [at 46.1 µM]"}
{"smiles": "Cn1c(C(=O)Nc2ccc3c(c2)OCCO3)cc2sccc21", "activity change, negative = inhibition": "inactive: -6.1%"}
{"smiles": "Cc1cccc(C(=O)Nc2nnc(SCC(=O)NCc3ccco3)s2)c1", "Potency": "inconclusive: 2.82 µM [activator, partial curve, poor fit]"}
{"smiles": "COc1ccc2[nH]c3c(=O)n4c(nc3c2c1)SCC4", "Potency": "inconclusive: 22.4 µM [inhibitor, partial curve, poor fit]"}
